Values from PubChem BioAssay AID504774 (Drosophila RNAi Screening Center, 2011)
Test: 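Fly genes whose loss alters survival after alkylation damage to DNA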 (primary screen). System: Drosophila Kc167 cells. Reagents: long dsRNA against Drosophila genes, about 0.25 µg dsRNA per well. Timing: about 6 days: 3 days knock-down, then 3 days with or without MMS. Challenge: methyl methanesulphonate 0.004% (w/v) for 3 days after knock-down. Measurement: 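Viability in wells given MMS, read as ATP luminescence, normalised by quantiles plate by plate and averaged across replicates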. Reading the numbers: mean viability with MMS and viability with MMS: higher = more surviving cells after MMS.
In all, the deposit lists about 23,000 reagents; shown is a random part of those that have a named target and a result. 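Values are quantile-normalised luminescence on an arbitrary scale; higher means more cells surviving MMS.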 A plus sign joins genes that one reagent is predicted to hit.

gene knocked down	PubChem SID	mean viability with MMS	viability with MMS, replicate 1	viability with MMS, replicate 2
Fen1	SID104187207	3.47e6	3.94e6	3.91e6
Mgat1	SID104187255	3.41e6	3.86e6	3.88e6
CG10183	SID104193995	3.39e6	3.81e6	3.81e6
zyd	SID104200508	3.56e6	3.99e6	4.08e6
CG15696	SID104194910	3.48e6	3.91e6	4.01e6
CG31769	SID104181153	3.52e6	4.00e6	3.99e6
Unc-115b + p24-2	SID104196284	3.57e6	4.10e6	4.03e6
krimp	SID104186370	3.54e6	3.95e6	4.06e6
Hus1-like	SID104192145	3.55e6	3.94e6	4.10e6
CG13073	SID104189748	3.55e6	3.93e6	4.13e6
synr	SID104182161	3.67e6	4.20e6	4.07e6
CG42376 + cin	SID104198544	3.55e6	4.13e6	3.94e6
CG40053 (retired record)	SID104200625	2.33e6	4.02e6	4.05e6
CG1827	SID104186511	3.58e6	4.07e6	4.06e6
CG8852	SID104180511	3.62e6	4.19e6	3.98e6
CG17930	SID104195084	3.57e6	4.07e6	4.02e6

The list goes on (5 carried over from the part before).
gene knocked down	PubChem SID	mean viability with MMS	viability with MMS, replicate 1	viability with MMS, replicate 2
CG42376 + cin	SID104198544	3.55e6	4.13e6	3.94e6
CG40053 (retired record)	SID104200625	2.33e6	4.02e6	4.05e6
CG1827	SID104186511	3.58e6	4.07e6	4.06e6
CG8852	SID104180511	3.62e6	4.19e6	3.98e6
CG17930	SID104195084	3.57e6	4.07e6	4.02e6
Hsp67Bc	SID104190985	3.58e6	4.16e6	3.94e6
ath	SID104182580	3.62e6	4.01e6	4.20e6
CG7394	SID104190627	3.46e6	3.82e6	4.03e6
CG32206	SID104189394	3.62e6	4.01e6	4.20e6
CG32206	SID104189886	3.64e6	4.17e6	4.06e6
CG32206	SID104189887	3.55e6	4.03e6	4.01e6
CG32206	SID104189888	3.66e6	4.17e6	4.10e6
CG32206	SID104190872	3.66e6	4.13e6	4.13e6
CG18266	SID104182451	3.40e6	3.80e6	3.79e6
CG31525	SID104191796	3.40e6	3.84e6	3.93e6
CG16786	SID104184073	3.70e6	4.13e6	4.23e6
CG33462	SID104202261	3.43e6	3.97e6	3.87e6
Act87E	SID104202001	3.61e6	4.08e6	4.06e6
Six4	SID104191673	3.53e6	4.00e6	4.01e6
Nhe3	SID104183172	3.47e6	3.95e6	3.91e6
CG18268 + CG3014	SID104195111	3.52e6	4.07e6	3.93e6
spict	SID104181949	3.61e6	4.19e6	4.04e6
St2	SID104194934	3.51e6	3.90e6	4.07e6
St2	SID104202035	3.51e6	3.99e6	3.99e6
CG14950 (retired record)	SID104188201	3.48e6	3.97e6	3.94e6
Pal1	SID104185898	3.64e6	4.22e6	4.06e6
CG13476	SID104189811	3.56e6	4.05e6	4.03e6
Pde9	SID104199538	3.72e6	4.30e6	4.09e6
Pde9	SID104199666	3.48e6	3.94e6	3.94e6
Pde9	SID104199667	3.62e6	4.01e6	4.18e6
Pde9	SID104199668	3.77e6	4.21e6	4.29e6
CG42284	SID104201664	3.68e6	4.10e6	4.17e6
CG42284	SID104201837	3.54e6	4.02e6	4.01e6
Pp1-13C	SID104200061	3.23e6	3.58e6	3.61e6
Pp1-13C	SID104202662	3.62e6	4.20e6	4.02e6
